{
  "source": "patent US8629164B2",
  "about": "“Inhibitors of NF-κB” (Profectus Biosciences, Inc., priority 2009, dated 2014)",
  "key": {"[1]": {"test_system": "human RPMI8226 multiple myeloma", "test": "RPMI8226 multiple myeloma xenograft in mice", "format": "in vivo", "settings": "PS-341 1 mg/kg iv days 1, 4/week×4 weeks; Example 2 15 mg/kg ip QD×21", "experimental": "Neither PS-341 (1 mg/kg iv days 1, 4/week×4 weeks) nor the compound of Example 2 (15 mg/kg ip QD×21) treatment achieved statistical significant tumor growth inhibition in this study as compared to vehicle treatment (P>0.10).\nSeveral compounds have been assessed for efficacy studies in rodent disease models. We first sought to obtain in vivo efficacy of the compounds in multiple myeloma which has high incidence of constitutive activation of both the canonical and non-canonical pathways."}, "[2]": {"test_system": "collagen-induced arthritis", "test": "Mouse model of collagen-induced rheumatoid arthritis (CIA)", "settings": "daily d21-d35"}},
  "note": "“And” between values parts separate entries of the source, which are not always exact repeats. Identical values can stand only once. Some of these results come from one statement about several compounds together.",
  "data": [
    {"compound": "O=C(NC1=CC(=O)C2OC2C1O)c1cc2ccccc2nc1O", "note": "(racemic) [Example 2, (±)-2-hydroxy-N-(2-hydroxy-5-oxo-7-oxabicyclo[4.1.0]hept-3-en-3-yl)quinoline-3-carboxamide]", "values": [
      {"measurement": "P of tumor growth inhibition compared to vehicle treatment", "setting": "[1]", "result": "> 0.05 and > 0.10"},
      {"measurement": "reduction of paw edema, P vs vehicle group", "setting": "[2]", "result": "< 0.01"}
    ]},
    {"compound": "CC(C)C[C@H](NC(=O)[C@H](Cc1ccccc1)NC(=O)c1cnccn1)B(O)O", "note": "[PS-341, bortezomib, reference compound]", "values": [
      {"measurement": "P of tumor growth inhibition compared to vehicle treatment", "setting": "[1]", "result": "> 0.05 and > 0.10"}
    ]},
    {"compound": "etanercept [reference compound]", "values": [
      {"measurement": "reduction of paw edema, P vs vehicle group", "setting": "[2]", "result": "< 0.01"}
    ]}
  ]
}
